Measurements as given in PMC8588357.
No constants are given. Whether binding was seen depends on the method and setting.

Protein sequences, listed by entry. Tags and fused reporters are not part of them. Residues count along the entry.
UniProt Q9P1W9, residues 2-311: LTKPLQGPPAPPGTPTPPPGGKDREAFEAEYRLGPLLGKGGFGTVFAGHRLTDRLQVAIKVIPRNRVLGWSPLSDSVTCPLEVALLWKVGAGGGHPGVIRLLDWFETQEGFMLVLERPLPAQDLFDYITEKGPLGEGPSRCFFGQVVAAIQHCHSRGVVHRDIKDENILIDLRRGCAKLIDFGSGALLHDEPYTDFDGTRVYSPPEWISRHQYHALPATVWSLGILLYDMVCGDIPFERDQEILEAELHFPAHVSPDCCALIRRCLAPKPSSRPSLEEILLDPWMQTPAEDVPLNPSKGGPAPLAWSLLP

Legend:
[1] = molecular target: recombinant PIM2 (proviral integration site of Moloney virus-2 kinase) (human) (UniProt Q9P1W9); test: SEC; 15 mg purified refolded rPIM2 on Sephacryl-200 HR 26/60; 50 mM Tris, 150 mM sodium chloride, pH 7.2; both purified
[2] = molecular target: recombinant PIM2 (proviral integration site of Moloney virus-2 kinase) (human) (UniProt Q9P1W9); test: native gel or EMSA; refolded purified rPIM2 run on SDS-PAGE and on native-PAGE side by side, CBB staining; both purified

For “recombinant PIM2 (proviral integration site of Moloney virus-2 kinase) (from UniProt Q9P1W9 2-311) (enzyme)”, which binding [1] is on record?
The binding was “no binding”.

What about the binding [2] of the same substance?
The binding was “no binding”.
